Test results reported in the supplement of paper PMC7666118.
The list shows a part of the results.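 How the source made its calls: active = dose-dependent thermal stabilisation significant by F-test of dose-response against flat model at 10% FDR; inactive = not significant.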

Sequences of proteins named here, by UniProt entry; tags and fusion partners are left off. A change or cut given only in a name is not applied to a line headed by its entry.
UniProt Q14CX7, whole entry: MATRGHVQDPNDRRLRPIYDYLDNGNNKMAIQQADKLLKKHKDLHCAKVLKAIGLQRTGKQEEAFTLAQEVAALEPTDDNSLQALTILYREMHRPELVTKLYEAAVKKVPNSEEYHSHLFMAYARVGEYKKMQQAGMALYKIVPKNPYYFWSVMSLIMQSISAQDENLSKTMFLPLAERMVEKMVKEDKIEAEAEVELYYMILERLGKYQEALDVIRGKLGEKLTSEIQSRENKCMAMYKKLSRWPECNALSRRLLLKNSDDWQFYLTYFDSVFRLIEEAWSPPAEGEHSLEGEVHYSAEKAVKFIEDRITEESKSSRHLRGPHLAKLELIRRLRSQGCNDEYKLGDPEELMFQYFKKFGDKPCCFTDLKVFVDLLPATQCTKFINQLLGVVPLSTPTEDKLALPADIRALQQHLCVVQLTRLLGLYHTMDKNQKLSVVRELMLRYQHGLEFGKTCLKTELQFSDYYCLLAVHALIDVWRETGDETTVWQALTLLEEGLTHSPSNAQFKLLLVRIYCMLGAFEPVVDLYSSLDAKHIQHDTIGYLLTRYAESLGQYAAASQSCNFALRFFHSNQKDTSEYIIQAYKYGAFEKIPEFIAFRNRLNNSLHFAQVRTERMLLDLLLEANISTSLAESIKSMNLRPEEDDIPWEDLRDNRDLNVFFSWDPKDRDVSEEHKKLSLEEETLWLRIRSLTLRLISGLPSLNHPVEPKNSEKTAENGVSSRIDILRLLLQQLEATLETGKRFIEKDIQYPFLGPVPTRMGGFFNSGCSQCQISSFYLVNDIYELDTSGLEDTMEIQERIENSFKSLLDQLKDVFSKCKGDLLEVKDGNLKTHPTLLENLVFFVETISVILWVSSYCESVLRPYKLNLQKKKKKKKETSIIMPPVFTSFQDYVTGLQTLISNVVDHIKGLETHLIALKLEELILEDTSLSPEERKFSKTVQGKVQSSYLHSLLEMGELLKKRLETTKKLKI
UniProt Q8NCW5: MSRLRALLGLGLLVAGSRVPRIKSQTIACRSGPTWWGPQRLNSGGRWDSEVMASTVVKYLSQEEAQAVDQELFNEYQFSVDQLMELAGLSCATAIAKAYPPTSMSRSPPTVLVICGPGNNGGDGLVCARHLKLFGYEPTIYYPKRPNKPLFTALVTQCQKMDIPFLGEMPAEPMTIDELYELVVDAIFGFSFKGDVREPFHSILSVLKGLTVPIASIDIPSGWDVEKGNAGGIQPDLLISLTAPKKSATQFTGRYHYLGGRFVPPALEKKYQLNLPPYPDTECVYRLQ
UniProt Q13177, whole entry: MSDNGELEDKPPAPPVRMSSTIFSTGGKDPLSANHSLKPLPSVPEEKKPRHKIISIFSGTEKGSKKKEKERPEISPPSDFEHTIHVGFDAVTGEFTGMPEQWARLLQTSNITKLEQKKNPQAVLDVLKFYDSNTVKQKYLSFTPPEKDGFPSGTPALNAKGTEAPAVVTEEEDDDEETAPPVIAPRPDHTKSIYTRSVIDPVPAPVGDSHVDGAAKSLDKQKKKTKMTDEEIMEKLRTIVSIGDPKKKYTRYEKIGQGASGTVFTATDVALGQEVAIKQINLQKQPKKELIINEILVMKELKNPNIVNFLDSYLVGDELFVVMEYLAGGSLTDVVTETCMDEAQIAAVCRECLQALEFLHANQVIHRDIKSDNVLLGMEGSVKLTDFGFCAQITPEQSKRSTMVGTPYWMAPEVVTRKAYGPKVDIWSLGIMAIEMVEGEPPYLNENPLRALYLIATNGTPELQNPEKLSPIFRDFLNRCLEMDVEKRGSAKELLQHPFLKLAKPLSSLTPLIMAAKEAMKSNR
UniProt Q96BN8, whole entry: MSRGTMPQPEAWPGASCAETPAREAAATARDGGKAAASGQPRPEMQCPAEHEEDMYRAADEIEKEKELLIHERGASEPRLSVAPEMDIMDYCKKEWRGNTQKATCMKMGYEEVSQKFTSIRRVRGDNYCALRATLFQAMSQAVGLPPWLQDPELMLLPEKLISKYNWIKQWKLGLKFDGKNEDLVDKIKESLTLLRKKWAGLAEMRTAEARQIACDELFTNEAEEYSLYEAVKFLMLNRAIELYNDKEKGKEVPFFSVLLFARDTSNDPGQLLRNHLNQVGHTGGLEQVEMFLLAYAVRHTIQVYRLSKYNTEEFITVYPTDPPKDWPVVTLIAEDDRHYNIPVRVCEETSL
UniProt Q6DKJ4: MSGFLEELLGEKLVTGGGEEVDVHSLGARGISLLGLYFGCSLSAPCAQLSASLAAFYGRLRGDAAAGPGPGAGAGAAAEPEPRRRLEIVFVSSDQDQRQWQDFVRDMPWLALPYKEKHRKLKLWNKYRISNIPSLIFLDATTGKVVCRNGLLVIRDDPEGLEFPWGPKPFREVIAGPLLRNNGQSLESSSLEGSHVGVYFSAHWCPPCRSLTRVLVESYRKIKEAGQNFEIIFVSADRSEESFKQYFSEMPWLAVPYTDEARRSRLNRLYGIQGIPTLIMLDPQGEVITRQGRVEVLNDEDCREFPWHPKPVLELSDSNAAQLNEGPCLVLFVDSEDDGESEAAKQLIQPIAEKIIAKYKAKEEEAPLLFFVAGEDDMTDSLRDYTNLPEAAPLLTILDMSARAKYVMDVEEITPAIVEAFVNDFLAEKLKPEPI
UniProt P18440: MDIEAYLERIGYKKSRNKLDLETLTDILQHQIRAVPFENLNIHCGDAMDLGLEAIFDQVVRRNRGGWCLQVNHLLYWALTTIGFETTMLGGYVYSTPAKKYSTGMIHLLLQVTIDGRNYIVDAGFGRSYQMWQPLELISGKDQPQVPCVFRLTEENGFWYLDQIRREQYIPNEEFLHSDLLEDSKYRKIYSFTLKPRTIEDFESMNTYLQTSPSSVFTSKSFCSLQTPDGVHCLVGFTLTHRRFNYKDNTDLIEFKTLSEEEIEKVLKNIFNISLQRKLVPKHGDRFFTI
UniProt Q13153, whole entry: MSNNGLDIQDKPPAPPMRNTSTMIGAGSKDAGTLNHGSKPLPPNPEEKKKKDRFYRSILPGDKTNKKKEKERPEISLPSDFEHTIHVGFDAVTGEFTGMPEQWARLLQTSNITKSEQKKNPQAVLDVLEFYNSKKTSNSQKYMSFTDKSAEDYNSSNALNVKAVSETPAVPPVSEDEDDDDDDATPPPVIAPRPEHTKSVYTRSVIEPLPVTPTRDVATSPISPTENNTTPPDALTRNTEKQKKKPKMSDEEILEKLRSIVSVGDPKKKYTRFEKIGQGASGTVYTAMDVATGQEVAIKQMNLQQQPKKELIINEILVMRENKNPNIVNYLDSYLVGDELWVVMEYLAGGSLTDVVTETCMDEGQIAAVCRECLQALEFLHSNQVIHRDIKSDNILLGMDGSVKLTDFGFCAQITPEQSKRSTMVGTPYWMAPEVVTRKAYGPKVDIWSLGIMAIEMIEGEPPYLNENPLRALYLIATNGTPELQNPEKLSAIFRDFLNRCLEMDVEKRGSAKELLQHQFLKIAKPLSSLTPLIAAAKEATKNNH
UniProt Q8N573: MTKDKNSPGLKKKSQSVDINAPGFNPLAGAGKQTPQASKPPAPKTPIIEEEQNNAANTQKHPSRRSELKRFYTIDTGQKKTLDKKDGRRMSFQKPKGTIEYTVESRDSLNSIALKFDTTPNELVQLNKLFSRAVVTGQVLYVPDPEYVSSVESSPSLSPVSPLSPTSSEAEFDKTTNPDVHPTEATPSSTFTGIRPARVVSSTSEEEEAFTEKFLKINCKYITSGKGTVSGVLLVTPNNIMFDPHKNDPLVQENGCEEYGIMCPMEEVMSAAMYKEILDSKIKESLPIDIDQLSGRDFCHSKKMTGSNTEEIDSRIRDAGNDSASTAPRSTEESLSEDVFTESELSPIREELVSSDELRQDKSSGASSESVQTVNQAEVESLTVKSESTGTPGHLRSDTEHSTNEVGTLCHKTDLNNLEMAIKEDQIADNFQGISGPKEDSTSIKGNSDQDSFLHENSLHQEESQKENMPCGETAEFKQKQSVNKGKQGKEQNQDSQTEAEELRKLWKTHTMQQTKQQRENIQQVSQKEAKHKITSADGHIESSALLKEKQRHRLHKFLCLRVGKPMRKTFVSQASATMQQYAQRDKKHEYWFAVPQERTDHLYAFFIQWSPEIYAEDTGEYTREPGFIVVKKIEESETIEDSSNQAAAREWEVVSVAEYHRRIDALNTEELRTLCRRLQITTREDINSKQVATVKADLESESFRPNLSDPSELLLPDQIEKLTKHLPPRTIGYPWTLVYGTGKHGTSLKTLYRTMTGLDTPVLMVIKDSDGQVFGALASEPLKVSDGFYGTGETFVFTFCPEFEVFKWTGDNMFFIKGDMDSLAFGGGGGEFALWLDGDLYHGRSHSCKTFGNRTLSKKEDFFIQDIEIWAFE
UniProt P0DPB6, whole entry: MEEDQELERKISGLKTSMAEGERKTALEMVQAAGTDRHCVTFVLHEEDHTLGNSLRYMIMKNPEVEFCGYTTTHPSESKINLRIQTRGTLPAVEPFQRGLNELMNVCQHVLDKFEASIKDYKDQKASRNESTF
UniProt O43809, whole entry: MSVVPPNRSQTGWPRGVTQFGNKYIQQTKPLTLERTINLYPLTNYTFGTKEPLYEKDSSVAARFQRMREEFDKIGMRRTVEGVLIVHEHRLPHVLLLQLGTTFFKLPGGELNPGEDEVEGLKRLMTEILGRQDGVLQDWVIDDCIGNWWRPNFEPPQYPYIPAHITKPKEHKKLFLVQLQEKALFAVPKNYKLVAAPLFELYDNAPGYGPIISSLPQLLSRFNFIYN
UniProt O43482, whole entry: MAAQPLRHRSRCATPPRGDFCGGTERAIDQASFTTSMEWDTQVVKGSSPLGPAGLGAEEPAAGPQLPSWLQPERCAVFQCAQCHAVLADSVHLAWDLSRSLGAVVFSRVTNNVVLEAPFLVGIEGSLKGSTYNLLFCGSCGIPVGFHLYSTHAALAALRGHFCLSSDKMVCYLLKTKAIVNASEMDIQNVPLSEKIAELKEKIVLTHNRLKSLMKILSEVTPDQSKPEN
UniProt Q96RG2: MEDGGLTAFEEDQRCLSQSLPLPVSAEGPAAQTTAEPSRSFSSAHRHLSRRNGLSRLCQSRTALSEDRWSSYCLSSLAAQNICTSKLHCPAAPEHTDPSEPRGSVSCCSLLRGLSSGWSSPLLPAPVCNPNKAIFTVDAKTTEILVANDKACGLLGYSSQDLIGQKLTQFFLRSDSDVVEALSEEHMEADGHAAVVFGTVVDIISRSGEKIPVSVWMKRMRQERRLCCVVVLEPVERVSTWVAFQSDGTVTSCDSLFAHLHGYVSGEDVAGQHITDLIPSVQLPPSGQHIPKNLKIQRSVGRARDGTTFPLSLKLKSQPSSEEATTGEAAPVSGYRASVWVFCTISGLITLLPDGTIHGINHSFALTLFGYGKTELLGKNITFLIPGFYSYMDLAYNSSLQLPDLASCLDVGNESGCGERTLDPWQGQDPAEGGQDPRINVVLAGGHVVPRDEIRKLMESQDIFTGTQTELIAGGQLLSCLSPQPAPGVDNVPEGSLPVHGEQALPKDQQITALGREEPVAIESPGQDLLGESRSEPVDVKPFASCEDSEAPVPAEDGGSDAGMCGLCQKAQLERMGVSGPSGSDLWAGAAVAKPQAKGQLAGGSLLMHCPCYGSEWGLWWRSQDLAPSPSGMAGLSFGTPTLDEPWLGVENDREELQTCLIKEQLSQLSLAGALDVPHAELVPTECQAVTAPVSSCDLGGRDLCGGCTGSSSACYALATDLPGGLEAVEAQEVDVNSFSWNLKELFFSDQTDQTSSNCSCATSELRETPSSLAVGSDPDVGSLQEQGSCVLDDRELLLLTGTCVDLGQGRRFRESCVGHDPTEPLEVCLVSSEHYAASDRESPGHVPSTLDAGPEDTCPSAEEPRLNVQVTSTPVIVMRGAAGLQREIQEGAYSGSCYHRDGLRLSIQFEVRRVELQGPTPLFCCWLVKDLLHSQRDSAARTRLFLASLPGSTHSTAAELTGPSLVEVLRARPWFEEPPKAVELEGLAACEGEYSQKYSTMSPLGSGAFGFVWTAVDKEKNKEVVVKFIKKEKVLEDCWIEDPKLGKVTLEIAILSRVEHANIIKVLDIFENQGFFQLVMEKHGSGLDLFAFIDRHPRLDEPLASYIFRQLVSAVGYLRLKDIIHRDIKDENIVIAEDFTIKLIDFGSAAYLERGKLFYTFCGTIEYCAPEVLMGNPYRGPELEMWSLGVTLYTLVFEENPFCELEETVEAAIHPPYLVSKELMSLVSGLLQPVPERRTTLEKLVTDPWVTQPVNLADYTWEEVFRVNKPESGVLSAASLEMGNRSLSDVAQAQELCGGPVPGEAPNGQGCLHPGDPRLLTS
UniProt Q9Y314: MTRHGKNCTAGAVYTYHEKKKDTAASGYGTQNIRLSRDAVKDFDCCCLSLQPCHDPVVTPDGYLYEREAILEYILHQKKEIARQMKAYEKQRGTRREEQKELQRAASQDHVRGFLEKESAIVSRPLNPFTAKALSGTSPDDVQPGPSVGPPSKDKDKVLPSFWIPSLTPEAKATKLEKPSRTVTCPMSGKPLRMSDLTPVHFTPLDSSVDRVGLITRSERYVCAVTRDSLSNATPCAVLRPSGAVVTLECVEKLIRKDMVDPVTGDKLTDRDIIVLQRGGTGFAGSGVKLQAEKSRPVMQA

compound: Nc1nc2c(ncn2[C@@H]2O[C@H](COP(=O)(O)OP(=O)(O)OP(=O)(O)O)[C@@H](O)[C@H]2O)c(=O)[nH]1; assay: dose-dependent thermal stabilisation call (2D-TPP, DLPTP, 10% FDR) (binary (1 = stabilised)); higher = stabilised by the compound; conditions: system: Jurkat gel-filtered lysate; concentration range 1-500 µM

Row | Target | dose-dependent thermal stabilisation call
1 | OGFOD2 (UniProt Q6N063) | active: 1
2 | NAA25 (UniProt Q14CX7) | inactive: 0
3 | NAXE (UniProt Q8NCW5) | inactive: 0
4 | PAK2 (UniProt Q13177) | inactive: 0
5 | NACA (UniProt E9PAV3) | inactive: 0
6 | OTULIN (UniProt Q96BN8) | inactive: 0
7 | NKRF (UniProt O15226) | inactive: 0
8 | NCSTN (UniProt Q92542) | inactive: 0
9 | NXN (UniProt Q6DKJ4) | inactive: 0
10 | NAT1 (UniProt P18440) | inactive: 0
11 | PAK1 (UniProt Q13153) | inactive: 0
12 | NANP (UniProt Q8TBE9) | inactive: 0
13 | NAPA (UniProt P54920) | inactive: 0
14 | PAPSS1 (UniProt O43252) | inactive: 0
15 | OXR1 (UniProt Q8N573) | inactive: 0
16 | POLR1D (UniProt P0DPB6) | inactive: 0
17 | NUCB2 (UniProt P80303) | inactive: 0
18 | NUDT21 (UniProt O43809) | active: 1
19 | OIP5 (UniProt O43482) | inactive: 0
20 | PASK (UniProt Q96RG2) | inactive: 0
21 | NUP88 (UniProt Q99567) | active: 1
22 | PAFAH1B1 (UniProt P43034) | inactive: 0
23 | NCK1 (UniProt P16333) | inactive: 0
24 | NOSIP (UniProt Q9Y314) | inactive: 0
25 | NCAPG (UniProt Q9BPX3) | inactive: 0
26 | OXCT1 (UniProt P55809) | inactive: 0
27 | NAPG (UniProt Q99747) | inactive: 0
